Source: patent US7629001B2, “Substrate for volatile delivery systems” (S.C. Johnson & Son, Inc., priority 2003, dated 2009)

Assay: release of straight transfluthrin from loaded substrate heated with an approximately 70° C. heater

For CC1(C)[C@H](C=C(Cl)Cl)[C@H]1C(=O)OCc1c(F)c(F)cc(F)c1F [transfluthrin, Transfluthrin], the “amount of transfluthrin that comes off the substrate” value was “essentially all” and the “manner of release from the substrate” value was “linear manner”.
